Reference: PubChem BioAssay AID540276 (National Center for Advancing Translational Sciences (NCATS), 2011)
Out of some 300,000 compounds screened, about 5,400 (1.8%) were called active. This list was built around the results that the source calls inconclusive (neither active nor inactive); the mix of calls is not that of the screen. The call rests on the fitted dose curve; tested in HEK293 cells. Where the call is inconclusive, the potency comes from a doubtful curve fit.

Experiment: qHTS for inhibitors of binding or entry into cells for Marburg Virus
Conditions: Marburg virus pseudotyped entry inhibition, cell reporter; activity change, negative = inhibition: at 37.8 µM (top of the series) unless noted
On the % scale 0 is the no-effect control and ±100 the full control effect; potency means the concentration at half of the fitted maximal effect.

| SMILES | Potency | activity change, negative = inhibition |
| --- | --- | --- |
| CCn1cc(Br)c(C(=O)Nc2nccs2)n1 | inactive | – |
| CC(OC(=O)CCCC(=O)Nc1ccccc1)C(=O)c1ccccc1 (stereo not given) | inconclusive: 6.31 µM [activator, partial curve, poor fit] | – |
| Cc1ccc(-c2nnn3c2nc(NCCc2ccc(S(N)(=O)=O)cc2)c2ccccc23)cc1 | inconclusive: 14.1 µM [activator, partial curve] | – |
| CCCCn1c(N)c(-c2nc3ccccc3s2)c2c([N+](=O)[O-])nn(C)c(=O)c21 | inconclusive: 10.3 µM [inhibitor, single point] | – |
| COc1cccc(-n2nnnc2S(C)(=O)=O)c1 | inconclusive: 10 µM [inhibitor, partial curve, poor fit] | – |
| O=C(Cc1ccccc1)Nc1ccc(NC(=S)NC(=O)c2ccccc2)cc1 | inactive | – |
| Cc1noc(/C=C/c2ccco2)c1S(=O)(=O)N1CCC(C(=O)Nc2ccc(Cl)cn2)CC1 | active: 6.51 µM | – |
| CCNC(=O)NC(=O)C(C)Sc1nc2cc(C(=O)OC)ccc2c(=O)n1-c1ccccc1 (stereo not given) | inconclusive: 14.1 µM [inhibitor, single point] | – |
| O=S(=O)(c1ccc(NC(=S)NCCC(c2ccccc2)c2ccccc2)cc1)N1CCOCC1 | active: 10 µM | – |
| Cn1ncc(Cl)c1C(=O)Nc1sc2c(c1C(N)=O)CCC2 | inactive | – |
| CC1CN(CCCCN2C(=O)c3ccccc3C2=O)CC(C)O1 (stereo not given) | inactive | – |
| COc1cc2c(cc1OC)CN(C(=O)c1ccc(N3CCCC3)c([N+](=O)[O-])c1)CC2 | inconclusive: 22.4 µM [inhibitor, single point] | – |
| COc1ccc(N(CCC#N)C(=O)/C(C#N)=C\c2cccs2)cc1 | inactive | – |
| CCc1ccc2[nH]c(=O)c(CN(CCCN3CCOCC3)C(=O)Nc3ccccc3)cc2c1 | inconclusive: 12.6 µM [inhibitor, partial curve] | – |
| Cc1ccc(N2C(=O)C3C(C(=O)c4ccccc4)=NN(c4ccccc4)C3C2=O)cc1 (stereo not given) | inactive | – |
| O=C1C2=C(C(c3ccccc3)=NCCN2)C(c2cccc([N+](=O)[O-])c2)N1c1ccccc1 (stereo not given) | inconclusive: 7.94 µM [inhibitor, full curve, poor fit] | – |
| CCCC(=O)NC(c1ccc(OC)cc1)c1c(O)ccc2ccccc12 (stereo not given) | inconclusive: 10 µM [inhibitor, partial curve, poor fit] | – |
| Nc1nc(Cl)nc2c1ncn2[C@@H]1O[C@H](CO)[C@H](O)[C@H]1O | – | inconclusive: -25.3% [inhibitor] |
| Cc1cc(C(=O)CSc2nnc(-c3cccnc3)n2-c2ccccc2)c(C)n1CC1CCCO1 (stereo not given) | inactive | – |
| CNC(=S)N(CCc1c(C)[nH]c2ccc(F)cc12)Cc1ccco1 | inconclusive: 14.1 µM [inhibitor, partial curve, poor fit] | – |
| CN(c1nc(-c2ccccc2)cs1)C1CCS(=O)(=O)C1 (stereo not given) | inactive | – |
| S=C(N/N=C/c1ccco1)NC1CC2CCC1C2 (stereo not given) | inconclusive: 1.12 µM [activator, partial curve, poor fit] | – |
| COc1ccccc1CCC(=O)Nc1cccc(S(=O)(=O)N2CCCCCC2)c1 | inactive | – |

Taken from the results shown (2 entries):

| SMILES | Potency | activity change, negative = inhibition |
| --- | --- | --- |
| Cc1ccc(N2C(=O)C3C(C(=O)c4ccccc4)=NN(c4ccccc4)C3C2=O)cc1 (stereo not given) | inactive | – |
| O=C1C2=C(C(c3ccccc3)=NCCN2)C(c2cccc([N+](=O)[O-])c2)N1c1ccccc1 (stereo not given) | inconclusive: 7.94 µM [inhibitor, full curve, poor fit] | – |

The list goes on:

| SMILES | Potency | activity change, negative = inhibition |
| --- | --- | --- |
| COC(=O)CSC1=C(C#N)C(c2ccc3c(c2)OCO3)C2=C(CCCC2=O)N1 (stereo not given) | inactive | – |
| C=CCNC(=S)Nc1c(N)n(C)c(=O)n(C)c1=O | inactive | – |
| COc1ccc(C(=O)NCC(=O)OCc2ccccc2F)cc1 | inconclusive: 6.31 µM [inhibitor, single point] | – |
| COc1ccc(OCCN2C(=O)c3ccccc3C2=O)c([N+](=O)[O-])c1 | inactive | – |
| CCOC(=O)c1cc(C)nc(S(C)(=O)=O)c1C#N | inconclusive: 6.31 µM [inhibitor, partial curve, poor fit] | – |
| CC(=O)Nc1c(S(=O)(=O)c2ccccc2)c2nc3ccccc3nc2n1Cc1ccccc1 | inactive | – |
| O=C(Nc1cccc2ccccc12)NC1Cc2ccccc2C1 | inconclusive: 35.5 µM [inhibitor, single point] | – |
| CN(C)c1ccc2c(c1)OC(N)=C(C#N)C2c1cccc(F)c1 (stereo not given) | active: 2.06 µM | – |
| COc1ccc(C(=O)OCC(=O)Nc2cc(C)on2)cc1S(=O)(=O)N1CCOCC1 | inactive | – |
| Cc1cc(-c2nnc(CCC(=O)NCC(C)c3ccccc3)o2)no1 (stereo not given) | inconclusive: 0.794 µM [inhibitor, partial curve, poor fit] | – |
| CCC(=O)NC(=S)Nc1cccc(Cl)c1N1CCCCC1 | inconclusive: 16.4 µM [inhibitor, single point] | – |
| O=C(O)c1nn(Cc2csc(-c3ccccc3)n2)c(=O)c2ccccc12 | inconclusive: 0.501 µM [activator, full curve, poor fit] | – |
| Cc1ccc(S(=O)(=O)N2CCC(=O)N(CCOCc3ccc(C(F)(F)F)cc3)CC2)cc1 | active: 16.4 µM | – |
| CCC(C)[C@@H](NC(=O)OC(C)(C)C)c1nnc(S(=O)(=O)Cc2cccc(C)c2)o1 (stereo not given in full) | inconclusive: 22.4 µM [inhibitor, single point] | – |
| N#CC1(NC(=O)COC(=O)c2nccnc2N)CCCCC1 | inactive | – |
| O=C(COC(=O)/C=C/c1ccc(OC(F)F)cc1)Nc1ccc(S(=O)(=O)N2CCCC2)cc1 | inconclusive: 0.316 µM [activator, partial curve, poor fit] | – |
| COc1ccccc1N1CCN(CCCCOc2c(OC)cccc2OC)CC1 | inconclusive: 15.8 µM [inhibitor, single point] | – |
| Cc1cccc(N2CCN(C(=O)C3CCN(S(=O)(=O)c4ccc5c(c4)oc(=O)n5C)CC3)CC2)c1C | inconclusive: 2 µM [inhibitor, single point] | – |
| CNc1nc2cc([N+](=O)[O-])c([N+](=O)[O-])cc2nc1NC | active: 7.94 µM | – |
| CN(C)c1ccc(C(C(=O)NCc2ccccc2)N(Cc2ccco2)C(=O)c2snc(C(N)=O)c2N)cc1 (stereo not given) | inconclusive: 7.94 µM [inhibitor, partial curve, poor fit] | – |
| O=C(Nc1nc(-c2ccc(Br)cc2)ns1)c1ccccc1F | inconclusive: 3.16 µM [activator, single point] | – |
| CCN(CC)c1ccc(CNc2nc3ccccc3n2CC)cc1 | inconclusive: 29.1 µM [inhibitor, single point] | – |
